Measured data: PubChem BioAssay AID1224828 (NIAID, 2016)

Aim: 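Find genes required for NF-kappaB p65 moving into the nucleus after LPS in mouse macrophages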 (primary screen)
System: mouse RAW264.7 G9 macrophage reporter cells (GFP-p65, Tnf promoter-mCherry)
Reagent: siRNA pool against mouse genes, 100 nM
Time to read-out: 2 days siRNA transfection, then 40 min LPS before fixation
Challenge: LPS (Salmonella minnesota R595) at 10 ng/ml
Measurement: 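Imaged p65 nuclear translocation ratio, normalised to the plate median, converted to robust z-scores and averaged across two replicates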
Direction: p65 translocation robust z-score: higher = more nuclear NF-kappaB p65 after LPS than the plate median; nuclear/cytoplasmic p65 ratio: higher = more nuclear NF-kappaB p65
Rule for the call: 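Active if robust z is above 3.3 (negative regulators) or below -1.56, the Tlr4 control median (positive regulators); activity score 50 or more; control wells not called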
Calls: active = hit (p65 shift raised or lowered); inactive = no clear change
Here is one part, drawn at random, of about 17,000 reagents. Over the whole deposit, 762 (4.5%) were called active. 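Active calls include both raised and lowered p65 entry, mostly lowered; wells with fewer than 50 cells lack a z-score.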 Raw values vary from plate to plate and are shown uncorrected. Entries without a mark were called inactive. Reagent sequences are not shown.

gene knocked down | p65 translocation robust z-score | nuclear/cytoplasmic p65 ratio, rep 1 | nuclear/cytoplasmic p65 ratio, rep 2 | low cell count flag
Grin2c | 0.65 | 1.52 | 1.46 | enough cells to score
Tepsin | – | 1.29 | 1.15 | fewer than 50 cells per well; well left out of scoring
Tmem45a2 | – | 1.02 | 0.946 | fewer than 50 cells per well; well left out of scoring
Cenpo | – | 1.31 | 1.28 | fewer than 50 cells per well; well left out of scoring
Gprasp1 | – | 1.6 | 2.84 | fewer than 50 cells per well; well left out of scoring
Tmem51 | -2.82 (active) | 1.24 | 1.37 | enough cells to score
Sik2 | -0.75 | 1.61 | 1.25 | enough cells to score
Ano7 | -1.81 (active) | 1.43 | 1.37 | enough cells to score
Slitrk3 | – | 1.63 | 1.25 | fewer than 50 cells per well; well left out of scoring
Fbxw7 | 0.27 | 1.38 | 1.39 | enough cells to score
Snrnp40 | 2.59 | 2 | 2 | enough cells to score
Cyb5r1 | -1.28 | 1.3 | 1.23 | enough cells to score

Hits, among the entries above:
gene knocked down | p65 translocation robust z-score | nuclear/cytoplasmic p65 ratio, rep 1 | nuclear/cytoplasmic p65 ratio, rep 2 | low cell count flag
Tmem51 | -2.82 (active) | 1.24 | 1.37 | enough cells to score
Ano7 | -1.81 (active) | 1.43 | 1.37 | enough cells to score

More results follow:
gene knocked down | p65 translocation robust z-score | nuclear/cytoplasmic p65 ratio, rep 1 | nuclear/cytoplasmic p65 ratio, rep 2 | low cell count flag
Hectd3 | 0.44 | 1.27 | 1.66 | enough cells to score
Mettl24 | 0.22 | 1.46 | 1.57 | enough cells to score
Wtip | -0.2 | 1.51 | 1.72 | enough cells to score
Chpf | -0.09 | 1.54 | 1.55 | enough cells to score
Nudt11 | 1.92 | 1.93 | 1.88 | enough cells to score
Fgd5 | -1.69 (active) | 1.32 | 1.25 | enough cells to score
Birc2 | 0.56 | 1.73 | 1.67 | enough cells to score
Slc23a3 | – | 1.29 | 1.21 | fewer than 50 cells per well; well left out of scoring
Foxf2 | -1.34 | 1.23 | 1.22 | enough cells to score
Zfp455 | – | 1.06 | 1.18 | fewer than 50 cells per well; well left out of scoring
Sp7 | -0.52 | 1.4 | 1.55 | enough cells to score
Sphkap | – | 1.21 | 1.24 | fewer than 50 cells per well; well left out of scoring
